Not every detail of the peptide structures is certain; ends, links or a residue may be inferred. Where no end group is shown, it is not given here.
The sequences below were run against T1, thermostable mature transglutaminase variant (SEQ ID NO: 3) (Streptomyces mobaraensis, UniProt P81453) (assay: not given). Conditions: decrease in transglutaminase activity relative to wild-type pro-peptide, casein assay; Method A.
T1 construct: made in house; host or cells: E. coli (lysate)
Format: biochemical
Source text: (§1) Method A. A bicistronic expression vector encoding the wild-type pro-domain of transglutaminase (SEQ ID NO: 2) and a thermostable mature transglutaminase variant (SEQ ID NO: 3) as separate polypeptides was cloned as described in PCT/US20/49226 (WO2021/178001 A1). The vector was used as a template for synthesis of a random mutagenesis library targeting the pro-domain coding sequence to create pro-domain peptide variants.
(§2) Method A. Plasmid libraries containing mature transglutaminase and variant pro-domain peptides were plated on Luria-Bertani (LB) agar plates containing 50 μg/mL of kanamycin. After incubation for at least 16 hours at 37° C., colonies were picked and inoculated into 1 mL of LB broth with 50 μg/mL kanamycin in one well of a 96 deep well culture plate. The plate was covered with a breathable seal and incubated overnight at 37° C. with 400 rpm of shaking. 10 μL of the seed culture was used to inoculate 1 mL of media in a 96 deep well culture plate for expression. The expression plate was allowed to grow for 6-8 hours at 30° C. Expression was then induced by adding isopropyl beta-D-1-thiogalactopyranoside (IPTG) to a final concentration of 1 mM and the temperature was reduced to 20° C. while growth continued for an additional 15 hours. Cells were harvested by centrifugation at 4000 rcf for 30 minutes and pellets were frozen at −80° C.
A secondary screen was performed to determine initial rate of transglutaminase in the presence of the pro-peptide variants using transglutaminase-catalyzed labeling of casein with dansylcadaverine (e.g., a commercially available kit such as the Transglutaminase Fluorogenic Activity Assay Kit, T036, Zedira, Germany). Transglutaminase activity was monitored by measuring the fluorescence (excitation wavelength 332 nm; emission wavelength 500 nm) using a BioTek Synergy H1 microplate reader. Transglutaminase-catalyzed covalent coupling (crosslinking) of monodansylcadaverine with N,N-dimethylcasein produces a product that causes a shift in intensity and wavelength of fluorescence of the dansyl group now linked to the casein. The relative transglutaminase activity is shown by increase of fluorescence intensity over time. The data were normalized for transglutaminase expression levels in E. coli lysate as described above. Pro-domain variants were identified based on their ability to alter the activity of the mature transglutaminase enzyme. […]
It is believed that these pro-peptide variants have reduced binding affinity with mature mTgase.

Sequences of proteins named here, by UniProt entry; tags and fusion partners are left off. A change or cut given only in a name is not applied to a line headed by its entry. A line that says so, or that is headed by a name, gives the form on record, which may keep a tag or linker.
UniProt P81453, other isoform, or with tags, fused parts or gaps: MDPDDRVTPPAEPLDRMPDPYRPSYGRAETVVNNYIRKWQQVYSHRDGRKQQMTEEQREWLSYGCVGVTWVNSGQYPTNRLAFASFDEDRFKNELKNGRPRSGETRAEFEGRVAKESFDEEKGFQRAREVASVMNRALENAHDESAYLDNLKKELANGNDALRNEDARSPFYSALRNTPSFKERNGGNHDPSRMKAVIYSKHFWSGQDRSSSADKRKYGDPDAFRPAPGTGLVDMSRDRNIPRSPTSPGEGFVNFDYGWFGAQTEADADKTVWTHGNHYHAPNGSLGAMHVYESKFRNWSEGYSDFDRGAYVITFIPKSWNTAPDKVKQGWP

Sequence | Improvement in binding affinity of inhibitory peptide relative to WT
MDNGAGEEPKSYAETYRLTADDVANINALNESAPAASSAGPSFRAP [Variant T9P] | >1.2 fold
MDNGAGEEDKSYAETYRLTADDVANINALNESAPAASSAGPSFRAP [Variant T9D] | >1.2 fold
MDNGAGEETKSYAETYRLTAKDVANINALNESAPAASSAGPSFRAP [Variant D21K] | >1.2 fold
MDNGAGEETKSYAETYRLTADHVANINALNESAPAASSAGPSFRAP [Variant D22H] | >1.2 fold
MDNGAGEETKSYAEQYRLTADDVANINALNESAPAASSAGPSFRAP [Variant T15Q] | >1.2 fold
MDNGAGEETKSYAETYRLTADDVANVNALNESAPAASSAGPSFRAP [Variant I26V] | >1.2 fold
MDNGAGEEEKSYAETYRLTADDVANINALNESAPAASSAGPSFRAP [Variant T9E] | >1.2 fold
MDNGAGEITKSYAETYRLTADDVANINALNESAPAASSAGPSFRAP [Variant E8I] | >1.2 fold
MDNGAGRETKSYAETYRLTADDVANINALNESAPAASSAGPSFRAP [Variant E7R] | >1.2 fold
MDNGAGEECKSYAETYRLTADDVANINALNESAPAASSAGPSFRAP [Variant T9C] | >1.2 fold

What follows are sequences tested against T1, thermostable mature transglutaminase variant (SEQ ID NO: 3) (assay: pH-responsiveness screen: casein/dansylcadaverine assay at pH 6.0 and pH 8.0 in the presence of pro-peptide variants (Method A)). Conditions: casein assay initial rates, pH 6.0 relative to pH 8.0, normalized for expression.
Format: biochemical
Source text: as §1, §2
A secondary screen was performed to determine initial rate of transglutaminase in the presence of the pro-peptide variants using transglutaminase-catalyzed labeling of casein with dansylcadaverine (e.g., a commercially available kit such as the Transglutaminase Fluorogenic Activity Assay Kit, T036, Zedira, Germany). Transglutaminase activity was monitored by measuring the fluorescence (excitation wavelength 332 nm; emission wavelength 500 nm) using a BioTek Synergy H1 microplate reader. Transglutaminase-catalyzed covalent coupling (crosslinking) of monodansylcadaverine with N,N-dimethylcasein produces a product that causes a shift in intensity and wavelength of fluorescence of the dansyl group now linked to the casein. The relative transglutaminase activity is shown by increase of fluorescence intensity over time. The data were normalized for transglutaminase expression levels in E. coli lysate as described above. Pro-domain variants were identified based on their ability to alter the activity of the mature transglutaminase enzyme.
To evaluate pH-responsiveness, initial rates of the active transglutaminase in the presence of pro-peptide variants were determined at pH 6.0 and pH 8.0 using the casein assay. Briefly, this assay was conducted at pH 6.0 and pH 8.0 for each pro-peptide variant to interrogate pH-responsive modulation of mature transglutaminase activity. Activity of the mature enzyme in the presence of each pro-peptide variant was normalized against transglutaminase expression levels using a commercially available ELISA (Zedira E021).

Sequence | Improvement in pH responsiveness of inhibitory peptide relative to WT
MDNGAGEETKSTAETYRLTADDVANINALNESAPAASSAGPSFRAP [Variant Y12T] | >1.2 fold
MDNGAGEETKSGAETYRLTADDVANINALNESAPAASSAGPSFRAP [Variant Y12G] | >1.2 fold
MDNGAGEETKSYAETYRLTADDVANINALNESAPAASSAGPSFRAF [Variant P46F] | >1.2 fold
MDNGAGEETKSYAETYRLTADSVANINALNESAPAASSAGPSFRAP [Variant D22S] | >1.2 fold
MDNGAGEETKLYAETYRLTADDVANINALNESAPAASSAGPSFRAP [Variant S11L] | >1.2 fold
MDNGAGEETKSYAETYRLTADDVANYNALNESAPAASSAGPSFRAP [Variant I26Y] | >1.2 fold
MDNGAGEETKSYAETYRLTADDVANINALNESAPAASSAGPSFRAG [Variant P46G] | >5 fold
MDNGAGEETRSYAETYRLTADDVANINALNESAPAASSAGPSFRAP [Variant K10R] | >1.2 fold
MDNGAGEETKSYAVTYRLTADDVANINALNESAPAASSAGPSFRAP [Variant E14V] | >1.2 fold
MDNGAGEETKS [ΔY12-P46] | >1.2 fold
MDNGAGEETKSLAETYRLTADDVANINALNESAPAASSAGPSFRAP [Variant Y12L] | >1.2 fold
MDNGAGEETKSYATTYRLTADDVANINALNESAPAASSAGPSFRAP [Variant E14T] | >1.2 fold
MDNGAGEETKSYAETYRWTADDVANINALNESAPAASSAGPSFRAP [Variant L18W] | >1.2 fold
MDNGAGEETDSYAETYRLTADDVANINALNESAPAASSAGPSFRAP [Variant K10D] | >1.2 fold
MDNGAGEETKSVAETYRLTADDVANINALNESAPAASSAGPSFRAP [Variant Y12V] | >1.2 fold
MDNGAGEESKSYAETYRLTADDVANINALNESAPAASSAGPSFRAP [Variant T9S] | >1.2 fold
MDNGAGEETKSYANTYRLTADDVANINALNESAPAASSAGPSFRAP [Variant E14N] | >5 fold
MDNGAGEETKAYAETYRLTADDVANINALNESAPAASSAGPSFRAP [Variant S11A] | >1.2 fold
MDNGAGGETKSYAETYRLTADDVANINALNESAPAASSAGPSFRAP [Variant E7G] | >5 fold
MDNGAGEETKSYARTYRLTADDVANINALNESAPAASSAGPSFRAP [Variant E14R] | >1.2 fold
MDNGAGEETKSYAGTYRLTADDVANINALNESAPAASSAGPSFRAP [Variant E14G] | >5 fold

Sequence | Improvement in pH responsiveness of inhibitory peptide relative to WT
MDNGAGEYTKSYAETYRLTADDVANINALNESAPAASSAGPSFRAP [Variant E8Y] | >1.2 fold
MDNGAGEETKSYAETYRRTADDVANINALNESAPAASSAGPSFRAP [Variant L18R] | >1.2 fold
MDNGAGEETKSYAETYRGTADDVANINALNESAPAASSAGPSFRAP [Variant L18G] | >1.2 fold
MDNGAGEEQKSYAETYRLTADDVANINALNESAPAASSAGPSFRAP [Variant T9Q] | >1.2 fold
MDNGAGEETKSYAETYRLTADDVAN [ΔI26-P46] | >1.2 fold
MDNGAGEETKSYAETYR [ΔL18-P46] | >5 fold
MDNGAGEETKSYAETYRLTADDVCNINALNESAPAASSAGPSFRAP [Variant A24C] | >1.2 fold
MDNGAGEETKSYAETYRKTADDVANINALNESAPAASSAGPSFRAP [Variant L18K] | >1.2 fold
MDNGAGEETGSYAETYRLTADDVANINALNESAPAASSAGPSFRAP [Variant K10G] | >5 fold
MDNGAGEETKSYAETYRLTADDVANINALNESAPAASRAGPSFRAP [Variant S38R] | >1.2 fold
MDNGAGEETKSYAETYRLTADDVANINALNESAPAASSAGPSFRAM [Variant P46M] | >1.2 fold
MDNGAGEETKKYAETYRLTADDVANINALNESAPAASSAGPSFRAP [Variant S11K] | >1.2 fold
MDNGAGEETKSYAETYRCTADDVANINALNESAPAASSAGPSFRAP [Variant L18C] | >1.2 fold
MDNGAGEETKTYAETYRLTADDVANINALNESAPAASSAGPSFRAP [Variant S11T] | >1.2 fold
MDNGAGEETKSYAKTYRLTADDVANINALNESAPAASSAGPSFRAP [Variant E14K] | >5 fold
MDNGAGEETKSYAETYRLTADGVANINALNESAPAASSAGPSFRAP [Variant D22G] | >1.2 fold
MDNGAGEETKSYAETYRLTADDVANINALNESAPAAS [ΔS38-P46] | >1.2 fold
MDNGAGEETKSRAETYRLTADDVANINALNESAPAASSAGPSFRAP [Variant Y12R] | >1.2 fold
MDNGAGEETKSNAETYRLTADDVANINALNESAPAASSAGPSFRAP [Variant Y12N] | >1.2 fold
MDNGAGEETKSYAYTYRLTADDVANINALNESAPAASSAGPSFRAP [Variant E14Y] | >5 fold

Source: patent US20250304927A1, “PRO-PEPTIDE VARIANTS FOR MODULATING ACTIVITY OF TRANSGLUTAMINASES” (CURIE CO. INC., priority 2022, published 2025)
